From PubChem BioAssay (NCATS)
This list was built around the results that the source calls inconclusive (neither active nor inactive); the mix of calls is not that of the screen. For some of these results: Potencies of inconclusive entries are doubtful fits and often do not repeat. Activity calls are given as the source filed them. Unless noted, calls come from the whole dose curve; as a rule, active = well fitted curve in either direction with a large enough effect (not every such curve was filed as active); inconclusive = small, poorly fitted or top-dose-only effect, or another doubt; inactive = flat fitted curve, though single readings scatter.

Amino acid sequences for entries named in this document (tags omitted). A change or cut given only in a name is not applied to a line headed by its entry.
UniProt Q07343: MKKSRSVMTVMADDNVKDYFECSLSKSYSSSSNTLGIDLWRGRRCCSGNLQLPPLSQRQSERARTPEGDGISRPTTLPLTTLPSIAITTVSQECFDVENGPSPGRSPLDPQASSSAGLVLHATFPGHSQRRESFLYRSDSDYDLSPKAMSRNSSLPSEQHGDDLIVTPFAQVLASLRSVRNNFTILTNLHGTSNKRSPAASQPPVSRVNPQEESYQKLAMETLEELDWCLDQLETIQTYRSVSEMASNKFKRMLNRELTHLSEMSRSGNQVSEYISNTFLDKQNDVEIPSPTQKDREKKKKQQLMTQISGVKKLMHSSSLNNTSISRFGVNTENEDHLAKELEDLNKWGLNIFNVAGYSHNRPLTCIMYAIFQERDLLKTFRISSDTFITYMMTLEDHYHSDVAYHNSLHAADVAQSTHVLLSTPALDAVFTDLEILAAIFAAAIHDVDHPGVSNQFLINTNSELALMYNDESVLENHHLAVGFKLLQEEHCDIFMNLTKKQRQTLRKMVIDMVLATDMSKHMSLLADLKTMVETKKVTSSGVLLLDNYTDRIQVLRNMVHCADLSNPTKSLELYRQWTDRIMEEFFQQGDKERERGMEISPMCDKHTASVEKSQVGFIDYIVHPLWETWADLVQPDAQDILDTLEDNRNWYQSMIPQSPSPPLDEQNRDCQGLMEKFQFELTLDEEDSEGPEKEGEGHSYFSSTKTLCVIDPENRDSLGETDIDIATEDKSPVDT
UniProt Q9HAZ1: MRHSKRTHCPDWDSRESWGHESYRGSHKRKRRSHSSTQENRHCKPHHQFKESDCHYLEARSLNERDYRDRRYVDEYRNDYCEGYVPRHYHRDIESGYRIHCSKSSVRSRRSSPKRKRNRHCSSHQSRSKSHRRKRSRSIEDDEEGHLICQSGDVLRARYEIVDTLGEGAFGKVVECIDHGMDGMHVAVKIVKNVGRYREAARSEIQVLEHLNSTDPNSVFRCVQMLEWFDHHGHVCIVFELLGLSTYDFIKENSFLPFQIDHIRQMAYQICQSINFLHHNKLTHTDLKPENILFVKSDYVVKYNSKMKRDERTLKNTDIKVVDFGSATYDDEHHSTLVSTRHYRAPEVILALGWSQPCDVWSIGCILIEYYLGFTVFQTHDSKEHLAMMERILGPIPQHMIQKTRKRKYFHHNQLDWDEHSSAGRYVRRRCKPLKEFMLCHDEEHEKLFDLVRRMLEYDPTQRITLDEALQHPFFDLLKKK
UniProt P27695, whole entry, looked up: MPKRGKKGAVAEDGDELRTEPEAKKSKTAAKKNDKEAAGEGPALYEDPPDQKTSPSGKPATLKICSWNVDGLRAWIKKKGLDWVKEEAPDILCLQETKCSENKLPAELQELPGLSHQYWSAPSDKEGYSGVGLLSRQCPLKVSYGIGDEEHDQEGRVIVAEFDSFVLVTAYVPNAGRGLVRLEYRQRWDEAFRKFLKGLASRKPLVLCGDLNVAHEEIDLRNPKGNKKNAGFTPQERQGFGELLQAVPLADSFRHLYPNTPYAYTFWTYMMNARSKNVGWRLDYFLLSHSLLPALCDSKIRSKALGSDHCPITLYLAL

Tested on: not listed separately
Experiment: Stat Signaling Pathway (AID 446);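 note: ME-180 cervical cancer cells given 40 pM IL-6 alongside compound; SIE-controlled beta-lactamase reporter measured as 460/530 nm FRET emission ratio; % is set by controls: 0 for no effect and ±100 for the full control effect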
Conditions: ME-180 SIE beta-lactamase reporter, IL-6 stimulated, 5 h; at 7.69 µM (top of the series) unless noted
Procedure, shortened: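 Emission at 460 and 530 nm (excitation 405 nm) reports SIE-controlled beta-lactamase in ME-180 cells. Cells received compound with 40 pM IL-6 for 5 hrs at 37 C; data scaled between 300 pM IL-6 and 125 nM JAK-inhibitor controls.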

Compound	activity, negative = inhibition
COc1ccc(-n2c(=O)c(-c3cc(F)cc(F)c3)nc3cnc(N(C)C)nc32)cc1	inconclusive: 71.3% [activator]
CC1(C)Cc2c(C#N)c(N3CCN(C(=O)c4ccco4)CC3)nc(-c3ccco3)c2CS1	inconclusive: -35.2% [inhibitor] [at 17.2 µM]
CN(Cc1ccco1)c1ncnc2ccc(-c3ccoc3)cc12	inconclusive: -38.3% [inhibitor]
COc1ccc(CNc2nc(-c3ccc4c(c3)OCO4)nc3ccccc23)c(OC)c1	inactive: 2.14%
COc1ccc(C(=O)N2CCC3(CC2)CN(c2cccc(-c4ccccc4)c2)C3)cc1	inactive: -19.1%
CN1CCN(c2nc(-c3cccnc3)nc3ccccc23)CC1	inconclusive: 37.5% [activator]

Molecular target: Mitogen-activated protein kinase 10 (Mus musculus) (UniProt Q61831)
Experiment: JNK3 AlphaScreen Assay (AID 530);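 note: kinase came from lysate of stimulated human HepG2 cells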; note: potency is the fitted concentration of half-maximal effect;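 for activity change, negative = inhibition: signal reports phosphorylation of biotinylated GST-cJun 1-79 at Ser73 with 10 µM ATP; % is set by controls: 0 for no effect and ±100 for the full control effect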
Conditions: JNK3 lysate, c-Jun phosphorylation; activity change, negative = inhibition: at 57.1 µM (top of the series)
Procedure, shortened: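 Kinase buffer: 20 mM Tris-HCl pH 7.6, 10 mM MgCl2, 1 mM DTT, 0.1 mM Na3VO4, 0.01% Tween-20; ATP 10 uM. Substrate biotin-GST-cJun(1-79), enzyme from activated HepG2 lysates. Detection by Ser73 phospho-antibody AlphaScreen.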

Compound	Potency	activity change, negative = inhibition
CN(C)c1ncnc2ccc(-c3cccc(NS(C)(=O)=O)c3)cc12	inactive	–
COC(=O)C1=C(C)NC(C)=C([N+](=O)[O-])[C@H]1c1ccccc1C(F)(F)F	inconclusive: 39.8 µM [inhibitor, partial curve, poor fit]	–
Cc1noc(C)c1C(=O)N1CCC2(CCN(Cc3ccc(C#N)cc3)CC2)CC1	inconclusive: 0.0794 µM [activator, full curve, poor fit]	–
COc1ccc(C(=O)N2CCC3(CC2)CN(c2cccc(-c4ccccc4)c2)C3)cc1	inconclusive: 20 µM [inhibitor, partial curve]	–
c1ccc(NN(Cc2cnccn2)c2ccccc2)cc1	–	inactive: 3.55% [at 11.4 µM]
O=C(c1cccc(F)c1)N1CCC2(CC1)CN(c1cccc(-c3ccccc3)c1)C2	inconclusive: 15.8 µM [inhibitor, single point]	–

Shown with bars between the fields: part of the list above.
Compound | Potency | activity change, negative = inhibition
CN(C)c1ncnc2ccc(-c3cccc(NS(C)(=O)=O)c3)cc12 | inactive | –
O=C(c1cccc(F)c1)N1CCC2(CC1)CN(c1cccc(-c3ccccc3)c1)C2 | inconclusive: 15.8 µM [inhibitor, single point] | –

Molecular target: 3',5'-cyclic-AMP phosphodiesterase 4B (Homo sapiens) (UniProt Q07343)
Experiment: qHTS Assay for Inhibitors of PDE-IV (AID 607; active = well fitted activation curve with a large enough effect in the main read-out, with a control signal flat, not every such curve was filed as active; inconclusive = small, poorly fitted or top-dose-only effect, or effect the other way, or a change in a side signal; note: potency is the fitted concentration of half-maximal effect; for activation (PDE inhibition): % of control where 0% means no effect)
Conditions: HEK293 ACTOne CNG channel cells, membrane potential fluorescence; activation (PDE inhibition): at 22.9 µM (top of the series)
Procedure, shortened: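 The readout is membrane depolarisation from a cAMP-sensing CNG channel, detected with a potential dye at ex 535/em 590. Cells were HEK293-derived (endogenous PDE-IV) at 1000 cells/well, titrated up to 22.9 uM final.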

Compound	Potency
CN(C)c1ncnc2ccc(-c3ccccc3C(F)(F)F)cc12	inconclusive: 10 µM [activator, partial curve]
c1nc(NC2CC2)c2cc(-c3ccoc3)ccc2n1	inconclusive: 5.01 µM [activator, partial curve, poor fit]
COCC(=O)N1CCC2(CC1)CCN(C(=O)Nc1cccc(C#N)c1)CC2	inactive
CN(Cc1ccco1)c1ncnc2ccc(-c3ccoc3)cc12	inconclusive: 10 µM [activator, partial curve]
COc1ccc(CNc2nc(-c3ccc4c(c3)OCO4)nc3ccccc23)c(OC)c1	inactive
CN1CCN(c2nc(-c3cccnc3)nc3ccccc23)CC1	inconclusive: 10 µM [activator, partial curve]
COc1ccc(CNc2cc(-c3ccccc3C)ncn2)c(OC)c1	inconclusive: 0.126 µM [inhibitor, full curve, poor fit]

Tested on: not listed separately
Experiment: qHTS Assay for Identification of Small Molecule Agonists for Hypoxia Response Element Signaling Pathway (AID 914; active = well fitted activation curve with a large enough effect in the signal ratio, with a control signal flat, not every such curve was filed as active; inconclusive = small, poorly fitted or top-dose-only effect, or effect the other way, or a change in a side signal; the % refers to the signal ratio; note: potency is the fitted concentration of half-maximal effect; for activation: % of control where 0% means no effect)
Conditions: ME-180 (cervical carcinoma) HRE-bla reporter, beta-lactamase ratio, CoCl2, 17 h; activation: active compounds read high
Procedure, shortened: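 Positive modulation of EC50 CoCl2-induced hypoxia response element signaling is measured in ME-180 cells with a beta-lactamase reporter. Compounds are titrated, incubation runs 17 hours, and %Activity derives from the blue/green ratio.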

Compound	Potency	activation
COc1ccc(-n2c(=O)c(-c3cc(F)cc(F)c3)nc3cnc(N(C)C)nc32)cc1	inconclusive: 1 µM [activator, partial curve]	–
CN(C)c1ncnc2ccc(-c3cccc(NS(C)(=O)=O)c3)cc12	–	inconclusive: -5.21%
CC(Cc1ccc(O)c(O)c1)C(C)Cc1ccc(O)c(O)c1 (configuration not stated)	inconclusive: 5.01 µM [inhibitor, single point]	–
Cc1noc(C)c1C(=O)N1CCC2(CCN(Cc3ccc(C#N)cc3)CC2)CC1	inconclusive: 0.0251 µM [inhibitor, full curve]	–
COc1ccc(C(=O)N2CCC3(CC2)CN(c2cccc(-c4ccccc4)c2)C3)cc1	–	inconclusive: -22%
COc1ccc(CNc2cc(-c3ccccc3C)ncn2)c(OC)c1	–	inactive: 2.85%
O=C(c1cccc(F)c1)N1CCC2(CC1)CN(c1cccc(-c3ccccc3)c1)C2	inconclusive: 0.631 µM [inhibitor, partial curve]	–

Molecular target: Dual specificity protein kinase CLK4 (Homo sapiens) (UniProt Q9HAZ1)
Experiment: qHTS Assay for Inhibitors of CDC-like Kinase 4 (Kinase-Glo Assay) (AID 1770; active = well fitted curve in the direction sought with a large enough effect; inconclusive = small, poorly fitted or top-dose-only effect, or another doubt; inactive = no such curve, though single readings can be large; an effect the other way counts as inactive or inconclusive; note: potency is the fitted concentration of half-maximal effect; nearly all actives have a fitted effect of over 65% in size)
Conditions: recombinant Clk4, Kinase-Glo ATP depletion luminescence; series mostly up to 66.7 µM
Procedure, shortened: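 Recombinant human Clk4 (25 nM) phosphorylated RS repeat peptide (100 uM) with 1 uM ATP in Tris pH 7.5/MgCl2/EGTA/DTT/Triton buffer for 4.5 h at room temperature. Residual ATP was quantified by Kinase-Glo luciferase luminescence.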

Compound	Potency
CN(C)c1ncnc2ccc(-c3ccccc3C(F)(F)F)cc12	inconclusive: 31.6 µM [falling, single point]
c1nc(NC2CC2)c2cc(-c3ccoc3)ccc2n1	active: 0.794 µM
COCCNc1ncnc2ccc(-c3ccc(N(C)C)cc3)cc12	active: 8.91 µM
CN(C)c1ncnc2ccc(-c3cccc(NS(C)(=O)=O)c3)cc12	active: 11.2 µM
CN1CCN(c2nc(-c3cccnc3)nc3ccccc23)CC1	inconclusive: 28.2 µM [falling, partial curve]

Molecular target: Dual specificity protein kinase CLK4 (Homo sapiens) (UniProt Q9HAZ1)
Experiment: qHTS Assay for Inhibitors of CDC-like Kinase 4 (ADP-Glo Assay) (AID 1771; active = well fitted curve in the direction sought with a large enough effect; inconclusive = small, poorly fitted or top-dose-only effect, or another doubt; inactive = no such curve, though single readings can be large; an effect the other way counts as inactive or inconclusive; note: nearly all actives have a fitted effect of over 70% in size; note: potency is the fitted concentration of half-maximal effect; for activity change, negative = inhibition: % is set by controls: 0 for no effect and ±100 for the full control effect)
Conditions: recombinant CLK4, ADP-Glo luminescence; series mostly up to 80 µM
Procedure, shortened: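 In this ADP-Glo format, 1 uM ATP and 100 uM RS peptide served as substrates for 25 nM Clk4 in Mg2+/EGTA/DTT/Triton buffer; reactions ran 1 hr at room temperature before luminescent ADP quantification.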

Compound	Potency
COc1ccc(-c2nc3cnc(Nc4cccc(OC)c4)nc3n(C3CC3)c2=O)cc1	inactive
CN1CCN(c2nc(-c3cccnc3)nc3ccccc23)CC1	inconclusive: 28.2 µM [falling, partial curve]
COc1ccc(CNc2cc(-c3ccccc3C)ncn2)c(OC)c1	inconclusive: 35.5 µM [falling, single point]

Molecular target: DNA repair nuclease/redox regulator APEX1 (Homo sapiens) (UniProt P27695)
Experiment: qHTS FP-Based Assay for Inhibitors of the Human Apurinic/apyrimidinic Endonuclease 1 (APE1) (AID 2573; active = well fitted curve in the direction sought with a large enough effect; inconclusive = small, poorly fitted or top-dose-only effect, or another doubt; inactive = no such curve, though single readings can be large; an effect the other way counts as inactive or inconclusive; note: potency is the fitted concentration of half-maximal effect; for activity, negative = inhibition: % is set by controls: 0 for no effect and ±100 for the full control effect)
Conditions: APE1 binding to TAMRA-labelled double-stranded DNA, fluorescence polarization displacement; series mostly up to 28.5 µM

Compound	Potency
COc1c(O)cc2oc(-c3ccc(O)c(O)c3)cc(=O)c2c1O	inactive
O=C(NN1C(=O)/C(=C/C=C/c2ccco2)SC1=S)c1ccncc1	inconclusive: 17.8 µM [inhibitor, single point]
O=C(O)c1cc(O)c2c(c1)C(=O)c1cc(O)cc(O)c1C2=O	active: 5.01 µM
